Protein sequences, listed by entry. Tags and fused reporters are not part of them. Lines headed by an entry give the natural chain unless they say otherwise; changes in a name come on top.
UniProt P05067: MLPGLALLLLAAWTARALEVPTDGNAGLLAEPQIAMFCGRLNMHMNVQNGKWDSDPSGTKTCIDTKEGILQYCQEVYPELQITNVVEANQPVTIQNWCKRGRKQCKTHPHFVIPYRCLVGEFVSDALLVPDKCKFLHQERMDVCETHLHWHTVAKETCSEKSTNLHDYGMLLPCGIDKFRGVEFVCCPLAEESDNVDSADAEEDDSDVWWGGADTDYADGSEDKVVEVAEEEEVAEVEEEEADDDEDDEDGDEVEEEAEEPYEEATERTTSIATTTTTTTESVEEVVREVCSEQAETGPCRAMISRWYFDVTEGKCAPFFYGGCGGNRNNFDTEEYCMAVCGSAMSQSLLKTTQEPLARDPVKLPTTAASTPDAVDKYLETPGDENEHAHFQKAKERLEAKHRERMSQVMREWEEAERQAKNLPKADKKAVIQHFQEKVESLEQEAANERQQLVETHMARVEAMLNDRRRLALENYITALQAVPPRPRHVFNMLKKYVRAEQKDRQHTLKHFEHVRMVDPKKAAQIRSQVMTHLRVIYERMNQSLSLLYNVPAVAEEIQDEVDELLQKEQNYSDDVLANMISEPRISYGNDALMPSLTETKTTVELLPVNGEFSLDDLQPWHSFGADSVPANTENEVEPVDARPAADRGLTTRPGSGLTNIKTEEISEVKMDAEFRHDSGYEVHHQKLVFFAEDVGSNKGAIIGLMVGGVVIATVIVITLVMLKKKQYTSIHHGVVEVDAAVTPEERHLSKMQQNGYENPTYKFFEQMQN

In patent US12037375B2, “Protein variant and composition for treating neurodegenerative disease using the same” (KOREA UNIVERSITY RESEARCH AND BUSINESS FOUNDATION, priority 2021, dated 2024):

Tested on: amyloid beta (1-42) fibrils
Experiment: TEM morphological analysis and fiber length measurement of amyloid fibrils
Conditions: 10 uM, 37° C., 1 day, 205 rotations per minute

Substance	average length of fibrils [nm]
protein variant substituted with isoleucine 32, leucine 34, and alanine 42: amyloid beta (1-42) variant with isoleucine 32, leucine 34 and alanine 42 substituted with asparagine	199.3
protein variant substituted with phenylalanine 19, leucine 34, and alanine 42: amyloid beta (1-42) variant with phenylalanine 19, leucine 34 and alanine 42 substituted with asparagine (DAEFRHDSGYEVHHQKLVNFAEDVGSNKGAIIGNMVGGVVIN; Amyloid-beta protein 42; UniProt P05067 672-713, looked up, variant F19N L34N A42N)	254.4
